Source: article PMC4701952
No constants are given. Whether binding was seen depends on the method and setting. Some results given as binding are weak or reduced against the parent protein; the word gives no strength.

Biological target: T1, SEP3 full length wild type (A. thaliana), O22456
T1 chain: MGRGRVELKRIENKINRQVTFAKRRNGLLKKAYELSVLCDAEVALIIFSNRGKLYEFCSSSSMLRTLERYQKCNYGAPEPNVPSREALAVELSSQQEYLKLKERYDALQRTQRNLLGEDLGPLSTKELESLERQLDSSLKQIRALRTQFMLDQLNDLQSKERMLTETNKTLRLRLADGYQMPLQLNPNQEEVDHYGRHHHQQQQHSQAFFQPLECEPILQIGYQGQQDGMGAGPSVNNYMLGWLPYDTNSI
Assay: native gel or EMSA; in vitro translated proteins (4 ul TnT mix, not purified) with 5-10 nM DY-682 labelled 121 bp SOC1 promoter DNA with two CArG boxes; complexes seen on DNA, assigned as putative dimer and tetramer
Details: remark: other sources report otherwise

binding: binds
B1: SEP3 full length wild type, O22456 1-251 (natural protein)
chain: T1 chain
